# Screening data, single-dose tests

The values are deposited in ChEMBL (CHEMBL3988442, “University of Dundee, Small-Polar-MMV Screening Library” (2021)).

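Whole-cell growth test on Mycobacterium tuberculosis, read after 4 days in a medium based on cholesterol and the lipid DPPC; the read-out is not stated. Concentration: 50 µM. Direction is inferred from retests: higher values go with more growth inhibition. About 69,000 compounds were tested under these conditions; 0.54% (about 370) showed 50% or more at least once.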

Values are the deposited “Percent Effect”, in %.
The controls that fix the scale are not given in the record; negative values are as filed.
Compounds were drawn at random from those tested, without regard to their results.
Two or more numbers in one place are separate tests of the same structure; such repeats can differ widely.

* COc1ccnc(N2CCN(CC(=O)N3CCC(C)CC3)CC2)n1 | -15.68%
* Cc1cccc(NC(=O)[C@@H]2CCCN2Cc2nc3ccccc3o2)n1 | 14.43% & 7.346%
* Cc1cnc(C(=O)N2CCCC(Cn3cc(CC(C)C)nn3)C2)cn1 (stereo not drawn) | 7.938%
* COc1ccc(Oc2ncccc2NC(=O)N2CCOCC2C)cc1 (stereo not drawn) | -7.08%
* COc1c(CNC2CCC(O)CC2)c(C(C)C)nn1C (stereo not drawn) | -9.258%
* O=C(Nc1ccc2ncccc2c1)C1CC(=O)N(Cc2ccccn2)C1 (stereo not drawn) | 7.316%
* CCC(CC)C(=O)NS(=O)(=O)CCc1ccccc1 | -16.66%
* Cc1c[nH]c(CN(C)C(=O)C2CC(=O)N(Cc3ccncc3)C2)n1 (stereo not drawn) | -13.56%
* Clc1nc2ccccn2c1CNCC1CN(C2CC2)CCO1 (stereo not drawn) | -21.39%
* CCN1CCN(c2nc(C(C)C)nc3c(C)nn(CC)c23)CC1 | -20.45%
* CCC(=O)N1CCC(c2nc3ccc(NC(C)C)cn3n2)CC1 | -15.23% & -14.07%
* Cc1nnc(CN(Cc2ccc(Cl)c(Cl)c2)C(C)C)o1 | -7.561% & 3.479%
* [H][C@]12CCN(C(=O)NCc3ccccc3C)CC[C@@]1([H])S(=O)(=O)N(C)C2 | -17.32%
* CNC(=O)c1cccc(CN2CCN(C3=NCC(C)(C)S3)CC2)c1 | 9.568%
* [H][C@]12CC[C@]([H])(CN(C(=O)c3ccncc3)C1)N(C(=O)COCC)C2 | 3.057% & -16.36%
* CN1CCOC(C(=O)Nc2ccc3[nH]nnc3c2)C1 (stereo not drawn) | 6.018%
* Cc1ccsc1CNc1ccccc1C(=O)N1CCNC(=O)C1 | -12.87%
* Cc1ccsc1CNCC1CCCN1c1cccnn1 (stereo not drawn) | -20.09%
* CC(O)CN1CCN(C(=O)CCOc2ccccc2F)CC1 (stereo not drawn) | 4.333%
* O=C(NCc1cccnc1)NCC(O)c1ccccc1C(F)(F)F (stereo not drawn) | -9.284%
* Cc1cc(C)n(CCN2CCOC(CNc3cccnn3)C2)n1 (stereo not drawn) | -4.61%
* NC(=O)CC1CCN(Cc2ccccc2OCC(F)(F)F)CC1 | -8.577%
* COCCN1CCC(CN(CC2CCCO2)C(=O)CCC(F)(F)F)CC1 (stereo not drawn) | 27.69%
* Cc1ccc(N2CCCC(N(C)c3ncnc4c3CCC4)C2)nn1 (stereo not drawn) | -0.05909% & 3.83%
* CSc1ccccc1C(C(=O)O)N(C)CC1CCOCC1 (stereo not drawn) | -24.27%
* Cc1cc(NC(=O)NC2CCN(C(C)C)CC2)c2ncccc2c1 | -14.77%
* CSCc1ccc(C(=O)NCCCNc2ccc(C(F)(F)F)cn2)cc1 | 41.23%
* CN(Cc1cnn(C)c1)C(=O)NCCc1ccc2c(c1)OCO2 | -20.01%
* O=C(c1ccccc1F)N1CC(c2nc(-c3ccc[nH]c3=O)no2)C1 | 7.016%
* [H][C@@]12CCN(Cc3ccc(C)s3)C[C@]1(C(=O)N1CCCO1)CCO2 | -1.125%
* Cn1ccc(CN2CCC(CC(=O)NC3CCCC3)CC2)cc1=O | -27.4%
* COc1ccc2c(ccn2CCC(=O)Nc2nc[nH]n2)c1 | 7.131%
* O=C(O)C(F)(F)F.O=C(O)C(F)(F)F.O=C(c1c[nH]cn1)N1CCCn2c(CN3CCCCC3)nnc2C1 | -2.906% & -3.652%
* CCN1CC(C(=O)NCc2ccccc2-n2cccn2)CC1=O (stereo not drawn) | -18.64%
* Cc1ccc2oc(SCC(N)=O)nc2n1 | -3.946%
* OC(CNCCn1cccn1)c1ccc(C(F)(F)F)cc1 (stereo not drawn) | 6.443%
* CCC(C)NC(=O)Nc1cccc(OC)c1 (stereo not drawn) | -24.55%
* O=C(O)C(F)(F)F.[H][C@]12C[C@@H](CN(C)C)N(C(C)=O)[C@@]1([H])CCN(C(=O)Cc1cccs1)C2 | -6.733% & -4.433%
* CC1CCN(C(=O)C2(Cc3cc(C4CCOC4)no3)CCNCC2)CC1.Cl (stereo not drawn) | 5.983%
* CN(Cc1nccs1)C1CCN(c2cccc(-c3cscn3)c2)CC1 | -6.491%
* Cc1nn(CCO)c(C)c1CNC1CCc2c(Cl)cccc21 (stereo not drawn) | 14.31%

Some entries from above, unchanged:

compound	percent effect
O=C(O)C(F)(F)F.[H][C@]12C[C@@H](CN(C)C)N(C(C)=O)[C@@]1([H])CCN(C(=O)Cc1cccs1)C2	-6.733 & -4.433
Clc1nc2ccccn2c1CNCC1CN(C2CC2)CCO1 (stereo not drawn)	-21.39
COc1c(CNC2CCC(O)CC2)c(C(C)C)nn1C (stereo not drawn)	-9.258
Cc1cc(NC(=O)NC2CCN(C(C)C)CC2)c2ncccc2c1	-14.77
Cc1nnc(CN(Cc2ccc(Cl)c(Cl)c2)C(C)C)o1	-7.561 & 3.479